Article PMC7819943, “Rice protein-binding microarrays: a tool to detect cis-acting elements near promoter regions in rice”
This is one part of the list.

Chains of the proteins cited; added tags and fusions are not shown.
UniProt Q0JBA9, entry or part of it: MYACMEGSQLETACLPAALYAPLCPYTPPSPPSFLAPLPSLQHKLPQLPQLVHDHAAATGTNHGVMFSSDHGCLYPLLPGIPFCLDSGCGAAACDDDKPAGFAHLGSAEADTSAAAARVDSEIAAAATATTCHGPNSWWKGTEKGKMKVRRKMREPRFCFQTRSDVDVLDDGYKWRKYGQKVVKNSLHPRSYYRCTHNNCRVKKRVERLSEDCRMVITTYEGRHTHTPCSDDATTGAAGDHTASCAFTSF

Target: OsWRKY34 (Oryza sativa, UniProt Q0JBA9 1-250)
Experiment: protein-binding microarray (RPBM); PBS, 2% BSA, 51.3 ng/ul salmon testes DNA, 50 uM zinc acetate, 200 nM TF, 25 C, 1 h; high values mean tight binding
Conditions: protein: recombinant; tags: N-terminal polyhistidine and DsRed monomer fusion (pET32a); label: CyDye5-dUTP incorporated in the synthesized complementary strand; 3' TTTTT single-stranded linker to array surface; dsDNA, one strand shown
Procedure, shortened: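 The binding signal is fluorescence intensity per feature, in arbitrary units, read on an Axon 4000B scanner. Polyhistidine- and DsRed-tagged transcription factors (N-terminal fusions) from E. coli BL21-CodonPlus were purified on Ni–NTA and applied at 200 nM for 1 h at 25 °C to a double-stranded, BSA-blocked custom Agilent array in buffer with 50 µM zinc acetate.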

Sequence	binding signal
CACAGCGCACATGCACAGCTAGCTAGCTTGACTTTTCCACCGGAGTCACCTAGTGCAG	9680 fluorescence intensity (a.u.)
TGCCATATCCTCCGGGGTGCTGTTGACCGTCTTGTTGTAACGGAGTCACCTAGTGCAG	11000 fluorescence intensity (a.u.)
GGGTGATGTGTTGTATCCGGTTTTACGGTTCAGGGACCAACGGAGTCACCTAGTGCAG	11000 fluorescence intensity (a.u.)
CTTGCTACCTGAGCTCCTCGCCGCATATACTCTCTCTCTCCGGAGTCACCTAGTGCAG	10200 fluorescence intensity (a.u.)
TATGACGTCGTTGACTTTTTAACCAACGTTTGACCATCGTCGGAGTCACCTAGTGCAG	32900 fluorescence intensity (a.u.)
CAATGACCATACGTATACTCGGCTGACTGCAGTTCTGCCGCGGAGTCACCTAGTGCAG	8190 fluorescence intensity (a.u.)
TTACTCGTGGAACACGAACCACCACGAACCTGTTTTGCATCGGAGTCACCTAGTGCAG	8230 fluorescence intensity (a.u.)
TTCCGGCACATCCTTCGTCGCGCTCGTCGCCACATCGCTTCGGAGTCACCTAGTGCAG	8880 fluorescence intensity (a.u.)
ATCATTCATGCGCGTCTGGCTGCCCACTCCGCATATTCTGCGGAGTCACCTAGTGCAG	8650 fluorescence intensity (a.u.)
GTCTTTCGCCGCCGCCTCTGCCTCTCGCCGATTCGCCATGCGGAGTCACCTAGTGCAG	11500 fluorescence intensity (a.u.)
ACCACCACTCGGCCACCCACCGGTCCTTGTCCAATTCGCTCGGAGTCACCTAGTGCAG	11000 fluorescence intensity (a.u.)
TTCCTTTCTTTCCCTGCTAATTGCTACCTCATCTATCCCTCGGAGTCACCTAGTGCAG	10100 fluorescence intensity (a.u.)
TGCTCATGGTCATTTTATTGCCGGCTTCTGCTTCAGGCTACGGAGTCACCTAGTGCAG	8490 fluorescence intensity (a.u.)
AATGACTGACTTTTTCAATCCTTTCGACCTTGGTTCCGTACGGAGTCACCTAGTGCAG	9670 fluorescence intensity (a.u.)
CCACCACCACACCACCACCGGTCGCCTACTCGCCTTCGCCCGGAGTCACCTAGTGCAG	9610 fluorescence intensity (a.u.)
GCGAGTCCCGAACTTCCAATCTTGCCGCCGCCGCGTCAGCCGGAGTCACCTAGTGCAG	8830 fluorescence intensity (a.u.)
TTCCATTTTGCTGTTTTTTAGCCTCGTGTTTTACCGTGTTCGGAGTCACCTAGTGCAG	9030 fluorescence intensity (a.u.)
ACTTTTTATACGCAACTTTCATTGCATATATTTTACTTTTCGGAGTCACCTAGTGCAG	9540 fluorescence intensity (a.u.)
TATGTAGTTGAACCATCCTCTCTTTTTGTCCTTTGCTACTCGGAGTCACCTAGTGCAG	9120 fluorescence intensity (a.u.)
ATTCGATCGCCTGGCTTATCCACCCTAACAAAAGCTTTAACGGAGTCACCTAGTGCAG	9540 fluorescence intensity (a.u.)
TTGTGGCTCAATCGAAATTGGTCTTTGTTCAATTGTTCTTCGGAGTCACCTAGTGCAG	8150 fluorescence intensity (a.u.)

Reformatted bar-delimited: entries from further up.
Sequence | binding signal
GGGTGATGTGTTGTATCCGGTTTTACGGTTCAGGGACCAACGGAGTCACCTAGTGCAG | 11000 fluorescence intensity (a.u.)
TTACTCGTGGAACACGAACCACCACGAACCTGTTTTGCATCGGAGTCACCTAGTGCAG | 8230 fluorescence intensity (a.u.)
TTGTGGCTCAATCGAAATTGGTCTTTGTTCAATTGTTCTTCGGAGTCACCTAGTGCAG | 8150 fluorescence intensity (a.u.)

(cont.)

Sequence	binding signal
GCCAACCCGCGCCGCGTCTCCTCCTCGTCGTCGCAACCCGCGGAGTCACCTAGTGCAG	9200 fluorescence intensity (a.u.)
TAACTGACTCCACCAACTCCTCTTCCCATCAACACCATTCCGGAGTCACCTAGTGCAG	8160 fluorescence intensity (a.u.)
AATTTCGTTTTTAATACGCCCAGTGAAATTTGCTGTCTAGCGGAGTCACCTAGTGCAG	17500 fluorescence intensity (a.u.)
CTAGTCGTTTGGTGGCTTCAATTGAATTGACATGTAACCTCGGAGTCACCTAGTGCAG	10400 fluorescence intensity (a.u.)
AATTCTCAGTGATACTATTATGCTTTTCGGTCAGTTGTTTCGGAGTCACCTAGTGCAG	8680 fluorescence intensity (a.u.)
ATCAATCCCATATAAACTGGACTAGGGCTATTACCTGATACGGAGTCACCTAGTGCAG	8380 fluorescence intensity (a.u.)
CGACGAGATGGTGATGAGGTGGTGGTGGTGGTGGACTGGTCGGAGTCACCTAGTGCAG	13300 fluorescence intensity (a.u.)
TCCAAGTGTACAACGTGATCTCCATCCCTTCAATTTTTCTCGGAGTCACCTAGTGCAG	8690 fluorescence intensity (a.u.)
CCGATCTCCATCTCTTAGAGTCTGCCATGTTATCTCATAACGGAGTCACCTAGTGCAG	9050 fluorescence intensity (a.u.)
CACTTTCCTTTTTTAAAATTTTTAATGTTTATTACAATTGCGGAGTCACCTAGTGCAG	8890 fluorescence intensity (a.u.)
TTATTTTTAGTTAATTTCATAATTTGTACTGATTAATTTACGGAGTCACCTAGTGCAG	9280 fluorescence intensity (a.u.)
CAACTAATTCTTCTTCTTCTTTTGTTTGGCACGGCCCATACGGAGTCACCTAGTGCAG	8590 fluorescence intensity (a.u.)
GTTCATCGTTGTGCTCAGCTGCTATTAGCCCATGTCAAGACGGAGTCACCTAGTGCAG	8440 fluorescence intensity (a.u.)
TATGCTGGTTAGTGTTGCTTTTCTTGGTAATATTTAAGGTCGGAGTCACCTAGTGCAG	9800 fluorescence intensity (a.u.)
ACTATGTAATTTCTCATCTTTGTTAGGTTGGTTTTTTATTCGGAGTCACCTAGTGCAG	11200 fluorescence intensity (a.u.)
CTAGGCTGAGTCATTCTCTTATCCAATCGCCCTTGCTTATCGGAGTCACCTAGTGCAG	12200 fluorescence intensity (a.u.)
TTTATGTAGTTCACTCAAACGGCAATTCCTGTGTTTTTCCCGGAGTCACCTAGTGCAG	8360 fluorescence intensity (a.u.)
AGTAATGGTTGAAGTGTGTTTAGTTTGTTGCCTTACCAAACGGAGTCACCTAGTGCAG	8320 fluorescence intensity (a.u.)
CCCAGTCTGTGTGTGAGTGTGTGTGGTCTGTGGAGTGTATCGGAGTCACCTAGTGCAG	9130 fluorescence intensity (a.u.)
ATTATCAAAACATGCACATCTTCCTGTTTCGCTTAAGTCTCGGAGTCACCTAGTGCAG	8910 fluorescence intensity (a.u.)
TTTTTATGTTACATATTTTTTTGTTTTGTTTACCAGTATACGGAGTCACCTAGTGCAG	11100 fluorescence intensity (a.u.)

Sequence	binding signal
TTCACTCTTCTTCTCTCGTACTCCACTGTACTGCACCTACCGGAGTCACCTAGTGCAG	9480 fluorescence intensity (a.u.)
CGGGATATGATACACTCGTCGCAACGTTCGAATTCTCCGTCGGAGTCACCTAGTGCAG	8730 fluorescence intensity (a.u.)
CGCGCTTGTGTTTCATGACTATAAGTTACTTATATACAAGCGGAGTCACCTAGTGCAG	8220 fluorescence intensity (a.u.)
GCTTGAATTTCTAAAAAGTATCTTTTTCCTATGTATCATTCGGAGTCACCTAGTGCAG	9280 fluorescence intensity (a.u.)
TCTCCGTCTCTTTTACCTCAGTCTCGCGTATACCCTAGCACGGAGTCACCTAGTGCAG	11600 fluorescence intensity (a.u.)
ACGAAGGATTGGTTTGGTCGCTTTCTCGGTTGCTGCTCGGCGGAGTCACCTAGTGCAG	9230 fluorescence intensity (a.u.)
ACCAATGCATTCTTTCGAAAACTGTTTATAGGGTAGGGGTCGGAGTCACCTAGTGCAG	11400 fluorescence intensity (a.u.)
TCTACTTTTTCTCTTCACTGGGTTGGGATTTGGTGTCTGCCGGAGTCACCTAGTGCAG	9390 fluorescence intensity (a.u.)
CCTTATATCCATCAGCTCTTTACAACACCTTAATCCTACACGGAGTCACCTAGTGCAG	9930 fluorescence intensity (a.u.)
ATGGTTGGTTCTTGTGTGTCCCTAAGCGTGAAAAAATATCCGGAGTCACCTAGTGCAG	12400 fluorescence intensity (a.u.)
CCGATGGTTTTCTTTTGACCCTTTTTGTCTTCATTAACACCGGAGTCACCTAGTGCAG	11000 fluorescence intensity (a.u.)
TCTCAAACAATTGCCTCTTCCTACGACGACTGGTGTGTTTCGGAGTCACCTAGTGCAG	9170 fluorescence intensity (a.u.)
GGCGGCCCAGGTACCGCGCGACTCGTTTTTTTTTTCCCCTCGGAGTCACCTAGTGCAG	9900 fluorescence intensity (a.u.)
ATCCCTTTGCCTAGTCAGGCTTCAACTCGATAGTCTTCTCCGGAGTCACCTAGTGCAG	8300 fluorescence intensity (a.u.)
TCCATAAACGTTTTATCACATGTGCATCTATTTTGCCATGCGGAGTCACCTAGTGCAG	8760 fluorescence intensity (a.u.)
CCCACGATAAAATTTTCATGATACAGTTATCCTGTCACGACGGAGTCACCTAGTGCAG	9220 fluorescence intensity (a.u.)
CTGCCTGCGCCGTCGGCCGACTCCTCGCTACTTCGCCCGCCGGAGTCACCTAGTGCAG	9300 fluorescence intensity (a.u.)
TCTTTTAGGGTTTGGTTTCCTTGCCCTCTCCCGCCCTGGGCGGAGTCACCTAGTGCAG	8310 fluorescence intensity (a.u.)
AATTGTATACCGGCATGGACACTAGTCTCTTTTTCAATATCGGAGTCACCTAGTGCAG	11300 fluorescence intensity (a.u.)
CACTCTAGACTCTACCCATTCCCATTACCCACGCCGCTTTCGGAGTCACCTAGTGCAG	9400 fluorescence intensity (a.u.)
GTTTCTTCACCTACTTCTACTTTTCAGCCAATTATGTTTTCGGAGTCACCTAGTGCAG	8940 fluorescence intensity (a.u.)

Sequence	binding signal
GCTAAGGGTATGGATTATAGTGAGGTGTGGATATTTTGACCGGAGTCACCTAGTGCAG	9790 fluorescence intensity (a.u.)
AAAGTGTGACTTGTCTATCCATGTTTTGCTGGCACCATTTCGGAGTCACCTAGTGCAG	10200 fluorescence intensity (a.u.)
CCATGGATGCCATCCAGTCGCGCCCGCTGCTGTCGCTCGCCGGAGTCACCTAGTGCAG	9320 fluorescence intensity (a.u.)
ATTCACCGAAGCGACGCTCTCCGTACCTCCACTGACATGCCGGAGTCACCTAGTGCAG	8460 fluorescence intensity (a.u.)
TCCTGCTCTTCATCGTGTTTTATGTGAACTTGTCGTATGCCGGAGTCACCTAGTGCAG	8570 fluorescence intensity (a.u.)
GGTTTCTGTATACTCCCTCTGTTTCAGGTTATAAGATATTCGGAGTCACCTAGTGCAG	8040 fluorescence intensity (a.u.)
GAGGTGGGGTGGCTTAGTGACCTCGTGTCGTAGATTGGATCGGAGTCACCTAGTGCAG	10500 fluorescence intensity (a.u.)
ACCATTATCCCCACCTTGTCCACAAGTCCAAACACATATCCGGAGTCACCTAGTGCAG	8510 fluorescence intensity (a.u.)
CTACCTCCATATTTTAATGTATGACGCCGTTGACTTTTTGCGGAGTCACCTAGTGCAG	37500 fluorescence intensity (a.u.)
GCGGACCGCGCCATCCCACTTCCGCCTCGCGCCTCACTCGCGGAGTCACCTAGTGCAG	8580 fluorescence intensity (a.u.)
CTGGTGTTATTCGTTTCTCTGTTGCAAAACGGGTTGTTTTCGGAGTCACCTAGTGCAG	9980 fluorescence intensity (a.u.)
ATTCTCTGCTTGTTTGGCCCATCCGCCCCTACAGCATGGGCGGAGTCACCTAGTGCAG	10300 fluorescence intensity (a.u.)
ACTCCCTCCATTTTTTTAATTGACGACGCCATTGACTTTTCGGAGTCACCTAGTGCAG	9350 fluorescence intensity (a.u.)
CCTACAGTCAAGCCCATTCTGTTTTACCGATTGCAATGCTCGGAGTCACCTAGTGCAG	9000 fluorescence intensity (a.u.)
CTCCTTCGCCGCCACTCCACCGGTCTCACGGTCGCTGCCACGGAGTCACCTAGTGCAG	9800 fluorescence intensity (a.u.)
CAAGTCGTTCGTTGTACTCTCGCTCGCCGCCGTGCTGCTCCGGAGTCACCTAGTGCAG	8550 fluorescence intensity (a.u.)
CAACCCTCTTATGTTGACCCGTAAACCCTGTTATGCATTACGGAGTCACCTAGTGCAG	8340 fluorescence intensity (a.u.)
GGATCGGCAATGTCAGCAGCTGCTCACTTGCTCGCATGCCCGGAGTCACCTAGTGCAG	8330 fluorescence intensity (a.u.)
GGGGTGCTGTTGCTGCGTGCCTGCGTGTACGTCGTTTGGTCGGAGTCACCTAGTGCAG	10300 fluorescence intensity (a.u.)
GACTTCTCTCGCTGGTTGGTTGGTTTCTTGATCCGCCATGCGGAGTCACCTAGTGCAG	13100 fluorescence intensity (a.u.)
AGGCAGGGTGGCGGCGGGCTCTTCTCTTCTCTCTCCCATGCGGAGTCACCTAGTGCAG	9950 fluorescence intensity (a.u.)
